Test results reported in publication doi:10.1101/559146.
Results are given in words; binding and its absence hold for the method and conditions named. Binding seen in cells or lysates may run through a third protein. These calls come from enrichment with a bait or labelling near it, and not all partners need be listed. For part of these data: A no says only that the protein was not detected with the bait. Sequences can lack the tags named with a protein.

T1: Rps2(224-254)-GFP (S. cerevisiae) (UniProt P25443)
T1 sequence: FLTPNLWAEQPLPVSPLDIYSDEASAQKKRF

T2: Rps2(1-73)-GFP (S. cerevisiae) (UniProt P25443)
T2 sequence: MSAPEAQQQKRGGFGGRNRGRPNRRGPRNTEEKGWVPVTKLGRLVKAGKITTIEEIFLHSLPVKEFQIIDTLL

T3: Rps2(1-223)-GFP (S. cerevisiae) (UniProt P25443)
T3 sequence: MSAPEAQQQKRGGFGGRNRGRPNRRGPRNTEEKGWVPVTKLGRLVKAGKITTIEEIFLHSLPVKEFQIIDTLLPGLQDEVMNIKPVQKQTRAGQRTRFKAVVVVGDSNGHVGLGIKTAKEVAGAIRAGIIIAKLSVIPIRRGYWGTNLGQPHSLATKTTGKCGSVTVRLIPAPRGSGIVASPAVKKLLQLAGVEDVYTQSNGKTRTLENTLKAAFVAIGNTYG

T4: full-length Rps2-GFP (S. cerevisiae) (UniProt P25443)
T4 sequence: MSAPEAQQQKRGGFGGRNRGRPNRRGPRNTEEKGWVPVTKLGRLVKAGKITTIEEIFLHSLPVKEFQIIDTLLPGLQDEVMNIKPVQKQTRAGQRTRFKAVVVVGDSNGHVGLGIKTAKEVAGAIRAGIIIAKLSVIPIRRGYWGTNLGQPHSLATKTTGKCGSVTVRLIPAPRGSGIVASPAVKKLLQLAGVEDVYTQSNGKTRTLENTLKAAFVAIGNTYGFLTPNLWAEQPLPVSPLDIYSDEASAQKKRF

T5: Rps2(Δ74-223)-GFP (S. cerevisiae) (UniProt P25443)
T5 sequence: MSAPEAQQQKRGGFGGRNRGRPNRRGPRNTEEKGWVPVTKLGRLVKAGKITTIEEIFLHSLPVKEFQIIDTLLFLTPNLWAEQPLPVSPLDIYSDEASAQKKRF

T6: Rps2(1-235)-GFP (S. cerevisiae) (UniProt P25443)
T6 sequence: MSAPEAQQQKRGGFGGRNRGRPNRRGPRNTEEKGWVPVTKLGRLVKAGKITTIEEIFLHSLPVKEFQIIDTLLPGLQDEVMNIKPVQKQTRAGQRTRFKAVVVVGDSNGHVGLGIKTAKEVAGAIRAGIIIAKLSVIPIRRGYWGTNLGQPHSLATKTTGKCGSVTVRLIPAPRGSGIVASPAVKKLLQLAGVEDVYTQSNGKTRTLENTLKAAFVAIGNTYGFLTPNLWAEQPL


How the values were obtained:
Assay in all cases: affinity purification with mass spectrometry
[1] = molecular target: T1, Rps2(224-254)-GFP (S. cerevisiae)
[2] = molecular target: T2, Rps2(1-73)-GFP (S. cerevisiae)
[3] = molecular target: T3, Rps2(1-223)-GFP (S. cerevisiae)
[4] = molecular target: T4, full-length Rps2-GFP (S. cerevisiae)
[5] = molecular target: T5, Rps2(Δ74-223)-GFP (S. cerevisiae)
[6] = molecular target: T6, Rps2(1-235)-GFP (S. cerevisiae)

| Binder | binding [1] | binding [2] | binding [3] | binding [4] | binding [5] | binding [6] |
| --- | --- | --- | --- | --- | --- | --- |
| Tsr4 (protein, UniProt P25040 1-408) MSKIEELPPSDTDDHSYSSKPGDVFLAFVDAPVKETDDILVEDSFIGGEPKWLHPDSEPPAELLKCGACKSADNMKLLLQAFSPLDDEQMSAIQQRLGINNMSYINPQDDRVLYVFLCTECQRKGNSVRCIRGVKKNKNVDSLSEKMASTSLEKDFQINPFDLSNNSDSKCNAFSSNPFGGANANPFGADSINSNISQSKDEGKKKESATVSAKTARKLHDLQKDKEYDGNKCFKSCLLYVEEETFKNKKPAHLQLPKNLKIDKEALDLTGDEDLEKDPIKLDPRTEKLSKFLDDDTFQKFQEVVGYNPLQVLRYDLGGKPLLYAETKVDILSTVPRPGYNPSSQRIFEMQLMPKMIFDLEEVVSVDNGMEWGTILVFTDVENYMPEFDEHGVGYVEECVKVQWESRT | no binding | binds | binds | binds | binds | binds |
| Kap123 (protein, UniProt P40069 1-1113) MDQQFLSQLEQTLHAITSGVGLKEATKTLQTQFYTQPTTLPALIHILQNGSDDSLKQLAGVEARKLVSKHWNAIDESTRASIKTSLLQTAFSEPKENVRHSNARVIASIGTEELDGNKWPDLVPNLIQTASGEDVQTRQTAIFILFSLLEDFTSSLSGHIDDFLALFSQTINDPSSLEIRSLSAQALNHVSALIEEQETINPVQAQKFAASIPSVVNVLDAVIKADDTMNAKLIFNCLNDFLLLDSQLTGNFIVDLIKLSLQIAVNSEIDEDVRVFALQFIISSLSYRKSKVSQSKLGPEITVAALKVACEEIDVDDELNNEDETGENEENTPSSSAIRLLAFASSELPPSQVASVIVEHIPAMLQSANVFERRAILLAISVAVTGSPDYILSQFDKIIPATINGLKDTEPIVKLAALKCIHQLTTDLQDEVAKFHEEYLPLIIDIIDSAKNIVIYNYATVALDGLLEFIAYDAIAKYLDPLMNKLFYMLESNESSKLRCAVVSAIGSAAFAAGSAFIPYFKTSVHYLEKFIQNCSQIEGMSEDDIELRANTFENISTMARAVRSDAFAEFAEPLVNSAYEAIKTDSARLRESGYAFIANLAKVYGENFAPFLKTILPEIFKTLELDEYQFNFDGDAEDLAAFADSANEEELQNKFTVNTGISYEKEVASAALSELALGTKEHFLPYVEQSLKVLNEQVDESYGLRETALNTIWNVVKSVLLASKVEPESYPKGIPASSYVNADVLAVIQAARETSMGNLSDEFETSMVITVMEDFANMIKQFGAIIIMDNGDSSMLEALCMQVLSVLKGTHTCQTIDIEEDVPRDEELDASETEATLQDVALEVLVSLSQALAGDFAKVFDNFRPVVFGLFQSKSKNKRSSAVGAASELALGMKEQNPFVHEMLEALVIRLTSDKSLEVRGNAAYGVGLLCEYASMDISAVYEPVLKALYELLSAADQKALAAEDDEATREIIDRAYANASGCVARMALKNSALVPLEQTVPALLAHLPLNTGFEEYNPIFELIMKLYQENSPVITNETPRIIEIFSAVFTKENDRIKLEKESTLGREENMERLKQFQTEEMKHKVIELLKYLNTTYNGIVAQNPVLAAVIA | no binding | no binding |  |  | no binding |  |
| Kap104 (protein, UniProt P38217 1-918) MASTWKPAEDYVLQLATLLQNCMSPNPEIRNNAMEAMENFQLQPEFLNYLCYILIEGESDDVLKQHYSLQDLQNNRATAGMLLKNSMLGGNNLIKSNSHDLGYVKSNIIHGLYNSNNNLVSNVTGIVITTLFSTYYRQHRDDPTGLQMLYQLLELTSNGNEPSIKALSKIMEDSAQFFQLEWSGNTKPMEALLDSFFRFISNPNFSPVIRSESVKCINTVIPLQTQSFIVRLDKFLEIIFQLAQNDENDLVRAQICISFSFLLEFRPDKLVSHLDGIVQFMLHLITTVNEEKVAIEACEFLHAFATSPNIPEHILQPYVKDIVPILLSKMVYNEESIVLLEASNDDDAFLEDKDEDIKPIAPRIVKKKEAGNGEDADDNEDDDDDDDDEDGDVDTQWNLRKCSAATLDVMTNILPHQVMDIAFPFLREHLGSDRWFIREATILALGAMAEGGMKYFNDGLPALIPFLVEQLNDKWAPVRKMTCWTLSRFSPWILQDHTEFLIPVLEPIINTLMDKKKDVQEAAISSVAVFIENADSELVETLFYSQLLTSFDKCLKYYKKKNLIILYDAIGRFAEKCALDETAMQIILPPLIEKWALLSDSDKELWPLLECLSCVASSLGERFMPMAPEVYNRAFRILCHCVELEAKSHQDPTIVVPEKDFIITSLDLIDGLVQGLGAHSQDLLFPQGTKDLTILKIMLECLQDPVHEVRQSCFALLGDIVYFFNSELVIGNLEDFLKLIGTEIMHNDDSDGTPAVINAIWALGLISERIDLNTYIIDMSRIILDLFTTNTQIVDSSVMENLSVTIGKMGLTHPEVFSSGAFANDSNWNKWCLSVNALDDVEEKSSAYMGFLKIINLTSTEVTMSNDTIHKIVTGLSSNVEANVFAQEIYTFLMNHSAQISAINFTPDEISFLQQFTS | no binding | no binding |  |  | no binding |  |
